The campaign covered roughly 410,000 compounds. About 18,000 (4.4%) were called active. The shares of active, inactive and inconclusive entries below differ from those in the screen. No stated cut-off is given here; in the data, active means activity change below about -60%; inconclusive means no clear call, values can overlap the other calls; inactive means above about -39%.
Assay: qHTS Assay for inhibitors of the human cytomegalovirus (HCMV)
Details: HFF cells, HCMV-luciferase reporter, 72 h; at 57.5 µM; hits give low values
Procedure, shortened: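 HFF cells seeded 16 h at 37C, treated with compounds, infected with luciferase-reporter HCMV at MOI 1 PFU/cell; luciferase read at 72 h post infection, normalized to buffer-only and Salinomycin controls.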
On the % scale 0 is the no-effect control and ±100 the full control effect.

| Structure (SMILES) | activity change, negative = inhibition |
| --- | --- |
| COC1=CC(=O)O[C@@H](/C=C/c2ccccc2)C1 | inconclusive: -53.7% |
| Cc1ccc(CCNC(=O)c2ccc3nc4ccccc4c(=O)n3c2)cc1 | inconclusive: -49.9% |
| COc1ccccc1N(CC(=O)NCCSCc1ccccc1)S(=O)(=O)c1ccccc1 | active: -73.2% |
| CCC(CC)COC(=O)C1=C(C)NC(=O)NC1c1ccc(OC)cc1 (stereo not given) | inconclusive: -41.9% |
| CC(NC(=O)CNC(=O)C1O[C@@H]2OC(C)(C)O[C@@H]2[C@H]2OC(C)(C)O[C@@H]12)C(=O)O (stereo not given in full) | inconclusive: -41.2% |
| Cc1occc1C(=O)N/N=C/C=C\c1ccccc1[N+](=O)[O-] | active: -75% |
| CCN1CCCc2cc(CN(CCN3CCOCC3)C(=S)Nc3cccc(Cl)c3)ccc21 | inconclusive: -46.3% |
| COCCOC(=O)c1sc2nc[nH]c(=O)c2c1C | inconclusive: -50.6% |
| CCCCN(C(=O)C(C)N1C(=O)c2ccccc2C1=O)c1c(N)n(CC(C)C)c(=O)[nH]c1=O (stereo not given) | inactive: 53.8% |
| CCOc1ccc(Nc2cc(C)nc(-n3nc(C)cc3C)n2)cc1 | active: -84.2% |
| Cn1cc(C=CC(=O)O)c2nccnc21 | active: -61.7% |
| COc1ccc(NC(=O)CSc2nc(-c3ccco3)nc3cc(=O)[nH]n23)cc1 | inactive: -0.849% |
| Cc1ccc(C(=O)c2c(NC(=O)CSc3nnc(N)s3)sc3c2CCCC3)cc1 | inconclusive: -56.8% |
| O=C(Nc1ccc2oc(-c3ccccc3F)nc2c1)c1ccc2c(c1)OCCO2 | inconclusive: -45.9% |
| CCOC(=O)CN1C(=O)c2cccnc2Oc2ccccc21 | inactive: -25.1% |
| CC(=O)N1c2ccc(S(=O)(=O)N3CCC(C(=O)Nc4ccc(C)cn4)CC3)cc2CC1C (stereo not given) | active: -80.2% |
| Cc1cc(C)cc(NC(=O)CSCc2cc(=O)c3ccc(C)c(C)c3[nH]2)c1 | inactive: 14.3% |
| O=C(Nc1ccc(-c2nnn(CC(=O)N3CCN(C(=O)c4ccco4)CC3)n2)cc1)c1ccc(F)cc1 | inactive: -13.6% |
| CN(CC(=O)Nc1ccc(F)cc1)CC(=O)N1CCCC1 | inactive: -4.88% |
| Cc1ccc(NC(=O)c2sc(-n3nc(C)c(Cc4ccc5c(c4)OCO5)c3C)nc2C)cc1C | active: -113% |
| CCCSCC(=O)Nc1ncc2c(n1)-c1ccccc1CC2 | active: -95.3% |
| CCOC(=O)c1ccc(NC(=O)CN2C(=O)CN(C(C)=O)C2=S)cc1 | inactive: -8.45% |
| COc1ccc(C2CC(=O)Nc3ccccc3S2(=O)=O)cc1OC (stereo not given) | inconclusive: -51.1% |
| Cc1cccc(NC(=O)c2sc3nc(-c4ccccc4)cn3c2C)n1 | inconclusive: -46.4% |
| Cc1nn(Cc2ccccc2Cl)c2sc(C(=O)Nc3ccccc3N3CCOCC3)cc12 | inconclusive: -53.2% |
| O=C(Nc1c2c(nn1-c1ccc(Cl)cc1)CS(=O)(=O)C2)c1ccccc1F | inactive: -7.73% |
| Cc1cc(NC(=O)CSc2nnc(C3COc4ccccc4O3)n2C)no1 (stereo not given) | active: -78.1% |
| CCNS(=O)(=O)c1ccc(CCC(=O)O)cc1 | inactive: -35.9% |

Nothing new here: an excerpt of the list.

| Structure (SMILES) | activity change, negative = inhibition |
| --- | --- |
| CN(CC(=O)Nc1ccc(F)cc1)CC(=O)N1CCCC1 | inactive: -4.88% |
| Cc1ccc(NC(=O)c2sc(-n3nc(C)c(Cc4ccc5c(c4)OCO5)c3C)nc2C)cc1C | active: -113% |
| CCCSCC(=O)Nc1ncc2c(n1)-c1ccccc1CC2 | active: -95.3% |

(listing goes on)

| Structure (SMILES) | activity change, negative = inhibition |
| --- | --- |
| OCC1(CCOc2ccccc2)CCN(Cc2cn[nH]c2-c2ccc(F)cc2)CC1 | inconclusive: -43.1% |
| O=C1NC[C@H](CCCCN2C[C@@H](Cc3ccccc3)N(CCC3CCCCC3)C(=O)C2=O)N(CCC2CCCCC2)C1=O | inconclusive: -59.2% |
| COc1cccc(NC(=O)Cn2c(=O)n(CCCCC(=O)NCCc3ccccc3)c(=O)c3ccccc32)c1 | inactive: -21.9% |
| C/C(CS(=O)(=O)c1ccccc1)=N\O | inconclusive: -55.3% |
| COc1ccc(Cn2c(=O)oc3ccc(C)cc32)cc1OC | active: -94.5% |
| O=C(c1ccc(F)cc1F)N1CCN(S(=O)(=O)c2ccc3c(c2)OCCO3)CC1 | inconclusive: -46% |
| COc1ccc2c(c1OC)C(=O)N1N=C(c3ccccc3)CC21 (stereo not given) | inconclusive: -42.2% |
| CC(C)N1C(=O)C(Cc2nc3ccccc3c(=O)n2-c2ccccc2)c2ccccc21 (stereo not given) | active: -71.6% |
| CC(C)N(CCC(=O)c1ccc2ccccc2c1)Cc1ccccc1 | active: -77.2% |
| Cc1ccc(C)c(CN2C(=O)c3ccccc3S(=O)(=O)c3ccc(C(=O)N4CCN(c5ccccc5F)CC4)cc32)c1 | inconclusive: -48.5% |
| COc1ccc(OCC(=O)N2CCN(C(=O)c3ccc(F)cc3)CC2)cc1 | inactive: 8.38% |
| Cc1nc(CSc2nsc(/C=C/N(C)C)c2C#N)cs1 | inactive: 28% |
| COc1cccc(CNS(=O)(=O)/C=C/c2ccc(OC)c(OC)c2)c1 | inconclusive: -46.9% |
| COc1ccc(C2c3[nH]c4ccccc4c3C[C@H]3C(=O)N(c4ccccc4C(=O)NCCN4CCOCC4)C(=O)N23)cc1 (stereo not given in full) | inactive: 13.6% |
| COc1ccc(-c2cc(C(=O)N3CCN(S(=O)(=O)c4ccccc4)CC3)[nH]n2)cc1 | inconclusive: -46.9% |
| CCOc1ccc(OCCC(=O)OCC(=O)NCCc2ccc(S(N)(=O)=O)cc2)cc1 | active: -73.4% |
| C=CCNC(=S)N/N=C(\C)c1ccccn1 | active: -103% |
| CCN(CC(=O)Nc1c(F)cccc1F)C(=O)COc1ccc2c(C)cc(=O)oc2c1 | inconclusive: -40.1% |
| O=C(Nc1ccc(O)cc1)C1CC=CCC1 (stereo not given) | inconclusive: -50.8% |
| COc1cccc(CC2(CO)CCN(Cc3cccn3-c3cccnc3)CC2)c1 | inactive: 5.2% |
| O=C(COc1ccccc1)NCCn1ccc2ccccc21 | inactive: 38.4% |
| COc1ccccc1-n1nc(-c2ccccc2)c2cnc3cc(C(F)(F)F)ccc3c21 | inactive: -4.91% |
| O=C(NCC(=O)N1CCN(Cc2ccccc2)CC1)c1ccc(Cl)cc1 | active: -62.4% |
| COc1ccc(Cl)cc1NC(=O)CSc1nc(-c2ccco2)cc(C(F)(F)F)n1 | inconclusive: -55.1% |
| O=C(NCC(c1ccco1)N1CCCC1)c1cccc(S(=O)(=O)N2CCc3ccccc32)c1 (stereo not given) | inconclusive: -45% |
| COc1cccc(-c2cc(C(=O)N/N=C/c3ccco3)c3ccccc3n2)c1 | inactive: 7.77% |
| Cn1cc(CN2CCCC(CO)(Cc3ccccc3)C2)c2ccccc21 (stereo not given) | inconclusive: -40.4% |

Source: PubChem BioAssay AID1259415 (National Center for Advancing Translational Sciences (NCATS), 2018)
